Results taken from paper PMC9585242.
Where two headings read alike, the source gives them in different places. Results are given in words; binding and its absence hold for the method and conditions named. In cells and extracts the contact can be indirect. Here binding means that the protein was enriched with, or labelled near, the bait; the list need not be complete. For some assays here: No binding means not detected with the bait. One block for each molecule: values may come before it.

Protein sequences, listed by entry. Tags and fused reporters are not part of them. Lines headed by an entry give the natural chain unless they say otherwise; changes in a name come on top.
UniProt Q383M3: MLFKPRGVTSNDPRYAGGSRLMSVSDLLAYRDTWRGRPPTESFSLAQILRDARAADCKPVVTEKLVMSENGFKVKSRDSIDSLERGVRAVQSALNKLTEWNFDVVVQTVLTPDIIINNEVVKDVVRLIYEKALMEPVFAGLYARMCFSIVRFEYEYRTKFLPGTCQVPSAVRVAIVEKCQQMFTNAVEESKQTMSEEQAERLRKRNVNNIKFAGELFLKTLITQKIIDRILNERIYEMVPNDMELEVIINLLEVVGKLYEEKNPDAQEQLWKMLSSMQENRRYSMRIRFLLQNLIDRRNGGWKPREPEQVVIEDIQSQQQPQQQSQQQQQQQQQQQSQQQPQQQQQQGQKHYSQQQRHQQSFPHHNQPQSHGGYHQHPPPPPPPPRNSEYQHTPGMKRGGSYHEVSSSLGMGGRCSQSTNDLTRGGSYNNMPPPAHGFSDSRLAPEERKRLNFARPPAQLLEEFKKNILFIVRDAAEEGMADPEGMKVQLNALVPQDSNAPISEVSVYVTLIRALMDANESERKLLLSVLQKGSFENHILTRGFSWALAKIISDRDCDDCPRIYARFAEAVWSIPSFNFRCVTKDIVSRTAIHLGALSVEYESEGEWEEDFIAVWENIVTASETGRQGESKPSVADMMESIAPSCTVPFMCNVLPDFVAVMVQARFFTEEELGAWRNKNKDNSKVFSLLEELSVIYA
UniProt Q585M4: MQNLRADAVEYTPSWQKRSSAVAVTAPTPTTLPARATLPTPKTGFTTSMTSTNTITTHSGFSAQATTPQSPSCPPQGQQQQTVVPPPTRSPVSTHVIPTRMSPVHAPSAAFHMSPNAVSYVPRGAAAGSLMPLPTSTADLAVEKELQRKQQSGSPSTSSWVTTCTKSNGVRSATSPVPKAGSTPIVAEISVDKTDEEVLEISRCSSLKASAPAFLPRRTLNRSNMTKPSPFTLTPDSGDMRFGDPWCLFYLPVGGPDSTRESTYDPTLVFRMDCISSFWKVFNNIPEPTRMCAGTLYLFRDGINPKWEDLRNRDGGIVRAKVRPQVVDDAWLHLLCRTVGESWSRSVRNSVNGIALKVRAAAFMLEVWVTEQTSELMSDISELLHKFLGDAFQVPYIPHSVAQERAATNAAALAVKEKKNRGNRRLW
UniProt Q38F38: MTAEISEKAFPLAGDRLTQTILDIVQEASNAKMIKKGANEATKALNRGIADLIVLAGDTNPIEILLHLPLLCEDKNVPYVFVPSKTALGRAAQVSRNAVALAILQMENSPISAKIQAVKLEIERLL
UniProt Q586I4: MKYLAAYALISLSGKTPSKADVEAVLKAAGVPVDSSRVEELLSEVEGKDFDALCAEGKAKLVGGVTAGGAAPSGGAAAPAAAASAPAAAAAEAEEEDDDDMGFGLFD
UniProt Q38EY6: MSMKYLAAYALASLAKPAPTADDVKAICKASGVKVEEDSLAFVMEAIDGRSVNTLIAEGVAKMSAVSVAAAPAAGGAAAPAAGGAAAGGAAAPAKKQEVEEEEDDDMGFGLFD
UniProt Q38CD0: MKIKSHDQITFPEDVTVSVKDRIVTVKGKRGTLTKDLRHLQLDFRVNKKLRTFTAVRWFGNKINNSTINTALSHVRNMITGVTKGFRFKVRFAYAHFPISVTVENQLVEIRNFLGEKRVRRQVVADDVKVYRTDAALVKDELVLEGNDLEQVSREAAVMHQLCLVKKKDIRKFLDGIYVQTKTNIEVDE
UniProt Q385T6: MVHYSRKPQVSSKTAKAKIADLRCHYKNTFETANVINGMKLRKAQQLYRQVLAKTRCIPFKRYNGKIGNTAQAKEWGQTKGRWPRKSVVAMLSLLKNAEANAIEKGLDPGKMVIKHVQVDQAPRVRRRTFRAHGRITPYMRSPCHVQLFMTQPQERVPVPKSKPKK
UniProt Q57X64: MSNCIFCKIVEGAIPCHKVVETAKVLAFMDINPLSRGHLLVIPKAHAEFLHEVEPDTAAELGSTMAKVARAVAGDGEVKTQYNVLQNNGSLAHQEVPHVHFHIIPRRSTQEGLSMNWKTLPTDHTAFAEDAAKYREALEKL
UniProt Q38BZ2: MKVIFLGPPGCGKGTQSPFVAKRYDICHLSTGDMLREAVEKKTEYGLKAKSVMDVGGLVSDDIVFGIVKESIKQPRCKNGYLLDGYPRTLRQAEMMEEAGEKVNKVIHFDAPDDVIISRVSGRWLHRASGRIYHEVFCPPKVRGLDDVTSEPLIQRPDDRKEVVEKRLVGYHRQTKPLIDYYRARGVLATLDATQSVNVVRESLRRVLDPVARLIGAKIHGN
UniProt Q38B28: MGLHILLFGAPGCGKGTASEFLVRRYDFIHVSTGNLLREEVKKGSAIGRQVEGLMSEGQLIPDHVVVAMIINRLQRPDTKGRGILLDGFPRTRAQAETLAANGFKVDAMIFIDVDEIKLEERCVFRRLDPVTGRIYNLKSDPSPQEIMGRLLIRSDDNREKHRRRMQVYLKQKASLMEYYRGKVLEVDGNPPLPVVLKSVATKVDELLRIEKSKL
UniProt Q382H2: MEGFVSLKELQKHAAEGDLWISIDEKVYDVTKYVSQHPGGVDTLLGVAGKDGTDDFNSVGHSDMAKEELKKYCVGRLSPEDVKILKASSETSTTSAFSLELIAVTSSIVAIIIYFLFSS
UniProt Q38C25: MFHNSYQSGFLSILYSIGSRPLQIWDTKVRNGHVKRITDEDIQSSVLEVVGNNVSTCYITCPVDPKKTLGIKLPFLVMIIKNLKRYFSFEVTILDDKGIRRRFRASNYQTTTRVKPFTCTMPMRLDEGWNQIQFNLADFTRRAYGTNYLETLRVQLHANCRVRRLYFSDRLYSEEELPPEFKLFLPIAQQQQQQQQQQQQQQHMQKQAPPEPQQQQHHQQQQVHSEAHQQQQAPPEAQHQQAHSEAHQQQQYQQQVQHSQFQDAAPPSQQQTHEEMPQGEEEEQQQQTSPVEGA
UniProt Q381R2: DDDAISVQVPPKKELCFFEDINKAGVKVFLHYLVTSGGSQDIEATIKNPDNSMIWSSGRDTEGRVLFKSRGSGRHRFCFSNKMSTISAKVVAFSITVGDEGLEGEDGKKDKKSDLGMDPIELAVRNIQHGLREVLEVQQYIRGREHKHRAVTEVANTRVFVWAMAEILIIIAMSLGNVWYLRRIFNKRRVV
UniProt Q383A4: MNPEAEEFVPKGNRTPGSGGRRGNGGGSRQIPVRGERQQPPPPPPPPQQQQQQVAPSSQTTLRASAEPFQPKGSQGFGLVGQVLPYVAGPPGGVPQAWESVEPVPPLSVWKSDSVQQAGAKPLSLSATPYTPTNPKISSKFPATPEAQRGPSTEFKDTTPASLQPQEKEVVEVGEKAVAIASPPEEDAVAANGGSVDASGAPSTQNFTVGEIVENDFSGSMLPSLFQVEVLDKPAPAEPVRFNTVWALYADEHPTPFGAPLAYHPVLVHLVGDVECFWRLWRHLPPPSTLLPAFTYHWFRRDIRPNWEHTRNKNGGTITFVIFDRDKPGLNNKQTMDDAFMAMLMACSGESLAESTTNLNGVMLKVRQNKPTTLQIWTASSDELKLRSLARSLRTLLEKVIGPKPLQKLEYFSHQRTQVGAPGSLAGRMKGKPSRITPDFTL
UniProt Q382K8: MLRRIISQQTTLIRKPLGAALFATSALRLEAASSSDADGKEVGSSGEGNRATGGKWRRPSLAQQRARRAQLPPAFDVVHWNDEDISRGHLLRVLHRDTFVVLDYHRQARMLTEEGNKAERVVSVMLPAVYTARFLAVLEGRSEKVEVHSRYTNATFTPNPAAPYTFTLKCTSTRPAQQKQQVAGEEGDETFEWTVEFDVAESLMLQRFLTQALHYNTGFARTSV
UniProt Q57VT0: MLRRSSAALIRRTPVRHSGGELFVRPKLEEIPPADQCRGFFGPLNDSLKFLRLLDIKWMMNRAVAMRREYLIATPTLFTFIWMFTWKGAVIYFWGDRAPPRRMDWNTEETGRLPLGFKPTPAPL
UniProt Q57Y81: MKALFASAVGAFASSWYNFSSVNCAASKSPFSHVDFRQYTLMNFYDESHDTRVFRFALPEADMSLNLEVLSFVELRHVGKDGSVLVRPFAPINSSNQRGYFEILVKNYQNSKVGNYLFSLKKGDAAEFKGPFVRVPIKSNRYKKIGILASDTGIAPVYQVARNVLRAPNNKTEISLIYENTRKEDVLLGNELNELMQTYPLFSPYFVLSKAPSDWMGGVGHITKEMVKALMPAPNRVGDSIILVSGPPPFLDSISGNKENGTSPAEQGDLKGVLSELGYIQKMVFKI
UniProt Q57WS0: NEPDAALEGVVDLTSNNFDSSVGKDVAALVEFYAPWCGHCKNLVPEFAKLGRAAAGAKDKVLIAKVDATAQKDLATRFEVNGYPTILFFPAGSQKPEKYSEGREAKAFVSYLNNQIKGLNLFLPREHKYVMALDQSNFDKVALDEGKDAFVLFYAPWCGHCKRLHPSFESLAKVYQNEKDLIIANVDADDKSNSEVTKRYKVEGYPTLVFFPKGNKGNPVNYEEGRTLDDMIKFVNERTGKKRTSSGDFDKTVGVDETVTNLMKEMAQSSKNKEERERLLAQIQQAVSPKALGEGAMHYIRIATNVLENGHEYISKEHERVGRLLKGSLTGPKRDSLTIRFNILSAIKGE
UniProt Q587B9: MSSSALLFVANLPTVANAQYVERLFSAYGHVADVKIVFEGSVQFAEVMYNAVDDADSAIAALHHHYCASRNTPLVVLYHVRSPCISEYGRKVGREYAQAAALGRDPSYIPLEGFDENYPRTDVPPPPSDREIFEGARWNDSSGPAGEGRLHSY
UniProt Q384D1: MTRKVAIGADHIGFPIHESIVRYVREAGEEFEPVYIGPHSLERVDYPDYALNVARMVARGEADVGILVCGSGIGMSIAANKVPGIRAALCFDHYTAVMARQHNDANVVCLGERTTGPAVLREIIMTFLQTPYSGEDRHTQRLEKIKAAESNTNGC
UniProt Q57X68: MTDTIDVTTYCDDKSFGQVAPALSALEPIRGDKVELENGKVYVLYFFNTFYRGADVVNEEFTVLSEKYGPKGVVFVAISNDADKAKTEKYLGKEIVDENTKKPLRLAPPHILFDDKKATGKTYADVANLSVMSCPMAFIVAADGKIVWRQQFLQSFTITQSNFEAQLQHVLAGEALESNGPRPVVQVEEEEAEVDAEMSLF
UniProt Q57X55: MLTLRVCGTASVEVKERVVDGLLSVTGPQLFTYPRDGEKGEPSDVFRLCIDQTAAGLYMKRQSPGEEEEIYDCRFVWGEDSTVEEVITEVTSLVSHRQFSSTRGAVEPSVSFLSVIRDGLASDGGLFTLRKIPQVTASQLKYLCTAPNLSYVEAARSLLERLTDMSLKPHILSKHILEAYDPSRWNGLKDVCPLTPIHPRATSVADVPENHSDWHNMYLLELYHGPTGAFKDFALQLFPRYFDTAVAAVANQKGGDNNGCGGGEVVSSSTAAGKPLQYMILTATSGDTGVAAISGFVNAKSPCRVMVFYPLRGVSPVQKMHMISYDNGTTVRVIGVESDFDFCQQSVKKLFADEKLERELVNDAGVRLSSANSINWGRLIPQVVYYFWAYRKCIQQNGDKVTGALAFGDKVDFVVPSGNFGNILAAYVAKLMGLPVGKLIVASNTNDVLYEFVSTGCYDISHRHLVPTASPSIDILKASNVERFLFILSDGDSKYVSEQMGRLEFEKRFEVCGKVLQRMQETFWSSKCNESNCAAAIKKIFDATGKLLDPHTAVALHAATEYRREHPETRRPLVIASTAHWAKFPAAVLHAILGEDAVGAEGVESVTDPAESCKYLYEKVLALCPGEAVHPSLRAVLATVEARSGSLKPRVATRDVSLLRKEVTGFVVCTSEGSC
UniProt Q586Q9: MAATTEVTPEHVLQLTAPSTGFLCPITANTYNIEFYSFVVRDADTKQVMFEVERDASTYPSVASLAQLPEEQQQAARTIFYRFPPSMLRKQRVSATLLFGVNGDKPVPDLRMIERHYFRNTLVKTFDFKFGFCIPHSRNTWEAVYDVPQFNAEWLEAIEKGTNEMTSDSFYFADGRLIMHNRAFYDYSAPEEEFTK
UniProt Q38B27: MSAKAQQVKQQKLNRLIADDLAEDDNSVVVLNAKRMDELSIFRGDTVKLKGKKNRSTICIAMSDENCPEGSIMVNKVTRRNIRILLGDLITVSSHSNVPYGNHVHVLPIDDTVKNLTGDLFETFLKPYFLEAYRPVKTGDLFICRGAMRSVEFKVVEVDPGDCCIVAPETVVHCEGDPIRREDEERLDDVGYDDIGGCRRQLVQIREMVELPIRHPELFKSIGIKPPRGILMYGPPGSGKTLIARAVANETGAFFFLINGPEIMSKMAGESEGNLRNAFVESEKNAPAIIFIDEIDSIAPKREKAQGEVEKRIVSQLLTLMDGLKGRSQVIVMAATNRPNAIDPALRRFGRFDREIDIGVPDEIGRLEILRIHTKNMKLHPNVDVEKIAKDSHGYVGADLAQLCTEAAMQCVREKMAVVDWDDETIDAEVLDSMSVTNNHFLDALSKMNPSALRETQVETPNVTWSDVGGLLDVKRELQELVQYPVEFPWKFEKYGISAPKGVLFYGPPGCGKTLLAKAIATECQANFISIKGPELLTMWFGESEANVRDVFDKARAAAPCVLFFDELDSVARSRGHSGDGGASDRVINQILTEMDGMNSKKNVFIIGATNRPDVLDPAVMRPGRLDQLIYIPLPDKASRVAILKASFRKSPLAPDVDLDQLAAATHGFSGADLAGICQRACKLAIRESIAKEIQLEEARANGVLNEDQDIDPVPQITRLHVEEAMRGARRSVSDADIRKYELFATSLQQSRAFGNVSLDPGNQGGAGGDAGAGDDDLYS

Tests used:
Assay in all cases: affinity purification with mass spectrometry; eYFP-tagged bait captured from lysate of cryogenically ground T. brucei procyclic cells (100 mM KCl, 1 mM MgCl2, 50 mM Hepes pH 7.2, 5% glycerol; no detergent, no RNase added) on llama anti-GFP nanobody (LaG-16-G4S-LaG-2) Dynabeads; biological triplicates; enrichment against the eYFP-DRBD4 control, or pairwise between the two eIF4E and the two eIF4G baits
[1] = target: Eukaryotic translation initiation factor 4G type 4 (Trypanosoma brucei (endogenous in procyclic Lister 427 cells)) (UniProt Q383M3)
[2] = target: Eukaryotic translation initiation factor 4E-4 (Trypanosoma brucei (endogenous in procyclic Lister 427 cells)) (UniProt Q585M4)
[3] = target: Eukaryotic translation initiation factor 4 gamma 3 (Trypanosoma brucei (endogenous in procyclic Lister 427 cells)) (UniProt Q57UX0)
[4] = target: Eukaryotic translation initiation factor 4 gamma 3 (Trypanosoma brucei (endogenous in procyclic Lister 427 cells)) (UniProt Q57UX0); remark: listed apart in the source

- binding [1]: binds
Molecule: 40S ribosomal protein S6 (from UniProt Q38F38)

- binding [2]: binds
Molecule: 60S acidic ribosomal protein P2 (Tb927.6.5120) (from UniProt Q586I4)

- binding [1]: binds
Molecule: 60S acidic ribosomal protein P2 (Tb927.9.5690) (from UniProt Q38EY6)

- binding [2]: binds
Molecule: 60S ribosomal protein L9 (from UniProt Q38CD0)

- binding [2]: binds
Molecule: 60S ribosomal protein L17 (from UniProt Q385T6)

- binding [2]: binds
- binding [1]: binds
Molecule: ADP-ribosylation factor-like protein 3A (from UniProt Q57XJ5)

- binding [3]: binds
Molecule: ATP synthase F1 subunit p18, mitochondrial (from UniProt Q57ZP0)

- binding [3]: binds
Molecule: Adenosine 5-monophosphoramidase (from UniProt Q57X64) (enzyme)

- binding [1]: binds
Molecule: Adenylate kinase (Tb927.10.2530) (from UniProt Q38BZ2) (enzyme)

- binding [3]: binds
Molecule: Adenylate kinase (Tb927.10.5760) (from UniProt Q38B28) (enzyme)

- binding [2]: binds
Molecule: Asparagine synthetase a (from UniProt Q57WT9) (enzyme)

- binding [3]: binds
Molecule: Cytochrome b5 (from UniProt Q382H2)

- binding [1]: binds
Molecule: DEAD-Box helicase DBP2B (from UniProt Q580H2)

- binding [3]: binds
Molecule: DUFF667 (from UniProt Q38C25)

- binding [2]: binds
- binding [3]: binds
Molecule: Emp24-related protein 1 (from UniProt Q381R2)

- binding [2]: no binding
- binding [1]: binds
Molecule: Eukaryotic translation initiation factor 4E-3 (from UniProt Q383A4)

- binding [2]: binds
Molecule: Guide RNA binding protein 25 (from UniProt Q382K8)

- binding [2]: binds
Molecule: Intraflagellar transport protein 27 (from UniProt Q580S0)

- binding [2]: binds
- binding [3]: binds
- binding [1]: binds
Molecule: Mitochondrial ATP synthase subunit (from UniProt Q57VT0)

- binding [3]: binds
Molecule: NADH-cytochrome b5 reductase (from UniProt Q57Y81) (enzyme)

- binding [1]: binds
Molecule: Nuclear transport factor 2 (NTF2) domain protein (from UniProt Q38C20)

- binding [3]: binds
Molecule: Protein disulfide isomerase (from UniProt Q57WS0) (enzyme)

- binding [3]: binds
- binding [1]: binds
Molecule: RNA-binding protein 17 (from UniProt Q587B9)

- binding [2]: binds
- binding [3]: binds
- binding [1]: binds
Molecule: Ribose 5-phosphate isomerase (from UniProt Q384D1) (enzyme)

- binding [3]: binds
Molecule: Signal peptidase subunit (from UniProt Q57ZR2)

- binding [2]: binds
- binding [3]: binds
- binding [1]: binds
Molecule: Thioredoxin-like (from UniProt Q57X68)

- binding [1]: binds
Molecule: Threonine synthase (from UniProt Q57X55) (enzyme)

- binding [3]: binds
Molecule: UNC119 (from UniProt Q586Q9)

- binding [2]: binds
Molecule: Valosin-containing protein, CDC48 (from UniProt Q38B27)

- binding [4]: binds
B1: Eukaryotic translation initiation factor 3 subunit E (protein, UniProt Q383C1 1-413)
chain: MTEMLSCLVPYLDKHLVLGLLYFYDDQGVDVGDALRFVQATTALTPEGEVSLEQENKIRETAERARPALDMFFEQNVSDNCTYQLCLTESRIDELRGKGELSRGFLEKEGITPKVMTAVMDLAFLYYDAARYGDASELLSLLQCVTGYELGESKLLWGRLVCDTCSCRWPSAIAAAEKLWKQQGADGSENKSGKTTLRGDNGTSVTERVWLLHWALFPFFKGGNQYSTHLLNIVFDNKTDSIYQCVVETVCPHYLRYICAAAILNTHRRSALRRAAEMVGRIYEYSDPLTQLVREITNYRSFEDTLELLPKVSELAQGDYFLNLHADNLVENAKRLIFTQYVVTHSVVSIPYMAERLEMSAAGAEVWLADLISETKQRAKIDAVTGQMFVGSQVRSVHQTVLDRLEPVDHGRR

- binding [4]: binds
B2: Proteasome subunit alpha type 1 (protein, UniProt Q38B02 1-266)
chain: MFKNQYDTDTTTWSPTGRLFQVEYANEAVNNGSAAVGVKGADYVVLTALKRNPVSGLSSYQEKAFKLDEHVGMAISGLVADGRALSRFLRTECMNYRYMHDSDAPLVMLADMVGAKHQRHIQFAGKRPFGVGLLIAGYDRQGPRLYQTVPSGDVFDFKATAMGLRSQAARTYLERHFRGFPACDLDELVMHALRALGAATSGGVELNIKNTTIAIVGKGTPFTILTEEEARKYLDGFKTRPEDIPAVADNEEDDDELHEQPPDVEE

- binding [4]: binds
B3: Peptidyl-prolyl cis-trans isomerase PIN1 (enzyme, UniProt Q57YG1 1-115)
chain: MSEKLRAAHLLVKFSGSRNPVSRRTGDSTADVTYEDAIKELQKWSQRIASGEVSFEEAASQRSDCGSYASGGDLGFFSSGEMMKPFEDAVRALKIGDISPIVQTDSGLHIIKRLA

- binding [4]: binds
B4: Aspartyl aminopeptidase (enzyme, UniProt Q57V45 1-451)
chain: MLPLDSPPVTQLAKEFVNFINEACTPFHAVEVLSSWLSNAGYQRLKEGETWPKLTNGYRYFITRNDSSLVAFSVGGRFVAENGLKIVGAHTDSPNLALKPRTLAGRSDYQGVAVQCYGGGLWHTWFDRDLTVAGRVIISSSKLVKRLVKVNKPIMRIPTLAIHLQSVEERNAFGPNKEKHLVPVIATTLSHTPNGDVSEHHNSQLLILLAESLGCRPSEIVDYDLSVVDTQDAVVGGANDEFIYAPRLDNLISCFCGVKALLESDKTLEEENMIRMVCLFDNEEVGSSTSQGAGGSLVPDVIEYISASGGLRAQLVANSFLMSVDGAHAVHPNYQDKHEEKHRPLIHRGPVIKYNANMRYATNGVTAAIVKAIAKRASVPIQEFCVKNDSPCGSTIGPILSSLSGIQTVDLGNPMLSMHSIREMCGTADLLHLKNLLEAFFNHYTRDMVTS

- binding [4]: binds
B5: Acyl carrier protein (protein, UniProt Q57WW9 1-148)
chain: MQRSQLARKFATQVGAYSLLRGRCHAVSTWKVMATQAVTIPMYLPVRFHSEGHAAGEEAGRTGQYLLNKDDVLTRVLEVVKNFEKVDASKVTPQSHFVNDLGLNSLDVVEVVFAIEQEFILDIPDHDAEKIQSITDAVEYISQNPMAK

- binding [4]: binds
B6: Sterol 24-c-methyltransferase (enzyme, UniProt Q4FKJ2 1-359)
chain: MSAGSRGPLSLLIARERDANGVNGDVNATAGRLRDRYDGKGASASERRQDATSLTNEYYDIVTDFYEYGWGQNFHFAPRYMNETFYESLARYEYFLAYHAQFKPTDTVLDVGCGIGGPARNMVRFTSCNVMGVNNNEYQINRARQHDSRYGMSGKINYTKTDFCNMCFGDNEFDGAYAIEATCHSESKVKCYSEVFRAIKPGAYFMLYEWCLTDLYDPANEEHQRVRHGIELGDGLPELDTMRQVVAAVKAAGFVVEESFDMAERFESGEPKSVPWYEPLQGSYTSLSGLRATPAGRWLTSVTCRLLEAVRLAPAGTCKATEILEEGAVNLVKGGELGIFTPSFFVKARKPRLGEELSC

- binding [4]: binds
B7: Transaldolase (enzyme, UniProt Q57X22 1-332)
chain: MNQLESLKKHTCVVIDTADFSLLKEFSAEDATTNPSLVLAGSQVPQHAHLVNSAVEFARSNVSRLRDGLLSSADDERAQLLELAVDKLTVSFGVEILKAIPGRVSSEVDARLSYDADKMVKKAQHIVQLYAEAGVPKERLYIKLASTWEGIRAAERLEREGINCNLTLLFSFDQAVACAQAGVALISPFVGRVLDWYKAKYPEQADTFIGAQDPGVIAVTKIYNYYKRHGYKTVVMGASFRNTGEVLELAGCDKLTISPKLLQELASTPGEVVRKLDPARLTQSIPKLSELTRPESLFERETNNMAVEKLEEGIRNFAKDTEKLEALIATLL

- binding [4]: binds
B8: Uncharacterized protein, conserved Tb927.7.4530 (protein, UniProt Q57X69 1-696)
chain: MPRIHIFENCGCSSGDGFIKAPSSGMWQCTLPSNAEQSPRVIAKKGRNGGHEILVKHTGLTGASGICPFVVESYDCGLTNPRGPQPCAQLVPRFVSPQRLQLISTSSRFLCSFLLTTNVRSADEVDVISFQCICPGARTPSGTGIAFAAAAEATWVDVVSLLRGEQIKGRTSFNAARVWRLQWGVVEAAEVEGVSDLRAGSTLAWRVVEELPLKGLVEDAVSRGGGTLQVAIAGARRKEECRKTAAASPRAESGSNKREPAAKAADADIPRFTPAAHVISADAEPPTLQPKLKRQREGESDPSSPRNLTVEFALAQEMDAKGAVGELRGGKGTDGTMSAGLVAPQRSGKRKPTYAEVLMRSEQPTDTARVAGPKVLVLREWRQRLGELRVEVGYVNNEDGILSLAKGWLRETGKESVGKSVKMVTTLVSASLRELLCGAHLNVAVQCRLSRCKKSDELASLRKCVDIAVVLGKEVDKLPQDTSVGLQFSKYILKLRLLRHRCFATVLMDKTVSRPLFVEALRLCRRLLRLLKEENIASTNSNVCDKDSDACSRQISLGVYTAALAAMELSLFTPENNKVQNGITLIAGELFLWLCNSKCEERDVPASLLACLESMVDEGSGLHQGGARVLSELLSSLESPTAILACSERCSNTVELCCGVVRDVANSAAFDQQFARTGALLRRVRTLGGKTNEKNG
